No constants are given. Whether binding was seen depends on the method and setting. Binding can be weak; no strength is given.
How the values were obtained:
[1] = biological target: preactivated cellular αIIbβ3 (αIIbβ3^N/S) (UniProt P08514); test: flow cytometry, fluorescein-tagged ligand on cells
[2] = biological target: human αVβ3 ectodomain (human); test: X-ray crystal structure, peptide soaked into αVβ3 ectodomain crystals

Sequences of proteins named here, by UniProt entry; tags and fusion partners are left off. A change or cut given only in a name is not applied to a line headed by its entry.
UniProt P08514: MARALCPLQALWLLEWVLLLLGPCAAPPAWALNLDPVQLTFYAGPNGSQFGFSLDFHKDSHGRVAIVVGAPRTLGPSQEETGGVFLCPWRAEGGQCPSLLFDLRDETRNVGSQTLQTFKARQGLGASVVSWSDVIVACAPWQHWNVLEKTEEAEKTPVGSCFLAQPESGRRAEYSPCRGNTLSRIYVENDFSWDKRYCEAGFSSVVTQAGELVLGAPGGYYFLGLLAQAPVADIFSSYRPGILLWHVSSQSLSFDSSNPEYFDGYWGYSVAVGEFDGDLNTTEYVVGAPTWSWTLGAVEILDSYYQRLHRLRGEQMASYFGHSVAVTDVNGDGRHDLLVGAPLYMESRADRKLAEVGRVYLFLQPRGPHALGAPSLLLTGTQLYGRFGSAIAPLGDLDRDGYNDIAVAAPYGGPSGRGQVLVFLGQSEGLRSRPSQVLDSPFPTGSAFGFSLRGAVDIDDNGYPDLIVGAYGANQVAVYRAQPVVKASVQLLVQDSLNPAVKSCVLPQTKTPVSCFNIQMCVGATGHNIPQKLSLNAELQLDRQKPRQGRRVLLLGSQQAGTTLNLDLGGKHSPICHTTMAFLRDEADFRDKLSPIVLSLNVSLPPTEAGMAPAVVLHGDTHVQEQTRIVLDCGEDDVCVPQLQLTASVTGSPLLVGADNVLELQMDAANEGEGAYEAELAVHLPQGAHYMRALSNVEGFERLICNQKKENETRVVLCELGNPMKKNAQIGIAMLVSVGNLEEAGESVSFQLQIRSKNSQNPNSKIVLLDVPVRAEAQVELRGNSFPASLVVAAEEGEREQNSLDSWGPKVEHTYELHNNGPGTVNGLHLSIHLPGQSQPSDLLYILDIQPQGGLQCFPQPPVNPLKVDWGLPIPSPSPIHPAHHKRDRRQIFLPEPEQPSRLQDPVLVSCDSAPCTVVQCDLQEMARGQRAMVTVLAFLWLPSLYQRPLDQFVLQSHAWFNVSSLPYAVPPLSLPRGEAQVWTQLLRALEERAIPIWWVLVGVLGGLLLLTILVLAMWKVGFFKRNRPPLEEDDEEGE

B1: hFN10-G (designed binder)
chain: SDVPRDLEVVAATPTSLLISWDAPAVTVRYYRITYGETGGNSPVQEFTVPGSKSTATISGLKPGVDYTITVYAVTPGRGDWNEGSKPISINY
Question: For B1, which binding [1] is on record?
Answer: Its binding is “binds”.

B2: chemically synthesized knottin 2.5F (peptide)
peptide: GCPRPRGDNPPLTCSQDSDCLAGCVCGPNGFCG
Question: For B2, which binding [2] is on record?
Answer: Its binding is “binds”.

Source: patent publication US20170044236A1
